From the supplement of paper PMC10849652
The list shows a part of the results.

The chains behind the UniProt entries cited, without tags or fusion partners. Where a name states a change or a piece, a line headed by the entry shows the natural chain unless it says otherwise.
UniProt Q9BW85: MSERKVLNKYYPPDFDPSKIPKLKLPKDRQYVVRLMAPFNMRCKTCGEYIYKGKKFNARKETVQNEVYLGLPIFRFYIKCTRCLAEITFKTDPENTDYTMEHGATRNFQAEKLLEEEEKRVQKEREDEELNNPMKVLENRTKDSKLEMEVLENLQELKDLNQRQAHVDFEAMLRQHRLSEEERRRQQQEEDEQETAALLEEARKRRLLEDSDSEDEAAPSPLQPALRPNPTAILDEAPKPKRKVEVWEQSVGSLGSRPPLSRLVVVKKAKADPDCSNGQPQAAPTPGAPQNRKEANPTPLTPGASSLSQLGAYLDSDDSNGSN
UniProt O76080: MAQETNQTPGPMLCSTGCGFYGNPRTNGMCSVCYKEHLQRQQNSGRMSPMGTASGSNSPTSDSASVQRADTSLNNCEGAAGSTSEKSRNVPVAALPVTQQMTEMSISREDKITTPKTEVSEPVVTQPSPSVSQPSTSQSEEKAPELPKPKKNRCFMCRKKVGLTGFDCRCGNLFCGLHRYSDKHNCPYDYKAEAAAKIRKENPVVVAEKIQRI
UniProt O95159: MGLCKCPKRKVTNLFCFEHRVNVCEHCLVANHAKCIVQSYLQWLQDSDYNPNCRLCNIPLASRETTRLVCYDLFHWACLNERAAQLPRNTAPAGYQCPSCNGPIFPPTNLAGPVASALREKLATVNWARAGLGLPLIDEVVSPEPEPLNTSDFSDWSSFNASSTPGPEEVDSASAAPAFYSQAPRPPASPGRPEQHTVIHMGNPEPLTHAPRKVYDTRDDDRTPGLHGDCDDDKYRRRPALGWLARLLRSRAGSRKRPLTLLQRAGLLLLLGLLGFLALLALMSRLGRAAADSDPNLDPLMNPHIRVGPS
UniProt P13010: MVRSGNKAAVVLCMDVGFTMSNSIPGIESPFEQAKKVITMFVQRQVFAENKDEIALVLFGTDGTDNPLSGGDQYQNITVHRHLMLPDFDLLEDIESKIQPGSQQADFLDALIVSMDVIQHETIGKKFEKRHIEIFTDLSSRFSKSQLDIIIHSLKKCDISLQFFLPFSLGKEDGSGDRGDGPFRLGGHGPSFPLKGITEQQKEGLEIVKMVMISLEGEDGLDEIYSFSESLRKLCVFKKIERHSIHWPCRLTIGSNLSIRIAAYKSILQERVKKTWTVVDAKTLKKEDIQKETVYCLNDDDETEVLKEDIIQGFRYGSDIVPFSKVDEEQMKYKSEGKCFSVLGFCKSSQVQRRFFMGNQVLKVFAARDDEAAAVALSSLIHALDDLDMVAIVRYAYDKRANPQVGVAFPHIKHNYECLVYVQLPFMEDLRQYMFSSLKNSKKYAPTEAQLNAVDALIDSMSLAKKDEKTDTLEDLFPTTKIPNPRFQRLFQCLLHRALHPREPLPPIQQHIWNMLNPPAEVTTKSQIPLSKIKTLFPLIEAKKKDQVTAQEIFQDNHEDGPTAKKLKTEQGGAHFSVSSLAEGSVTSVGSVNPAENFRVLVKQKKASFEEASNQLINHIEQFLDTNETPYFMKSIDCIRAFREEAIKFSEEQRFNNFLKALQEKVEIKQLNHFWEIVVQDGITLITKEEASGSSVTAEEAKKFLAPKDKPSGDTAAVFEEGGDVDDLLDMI
UniProt P12956: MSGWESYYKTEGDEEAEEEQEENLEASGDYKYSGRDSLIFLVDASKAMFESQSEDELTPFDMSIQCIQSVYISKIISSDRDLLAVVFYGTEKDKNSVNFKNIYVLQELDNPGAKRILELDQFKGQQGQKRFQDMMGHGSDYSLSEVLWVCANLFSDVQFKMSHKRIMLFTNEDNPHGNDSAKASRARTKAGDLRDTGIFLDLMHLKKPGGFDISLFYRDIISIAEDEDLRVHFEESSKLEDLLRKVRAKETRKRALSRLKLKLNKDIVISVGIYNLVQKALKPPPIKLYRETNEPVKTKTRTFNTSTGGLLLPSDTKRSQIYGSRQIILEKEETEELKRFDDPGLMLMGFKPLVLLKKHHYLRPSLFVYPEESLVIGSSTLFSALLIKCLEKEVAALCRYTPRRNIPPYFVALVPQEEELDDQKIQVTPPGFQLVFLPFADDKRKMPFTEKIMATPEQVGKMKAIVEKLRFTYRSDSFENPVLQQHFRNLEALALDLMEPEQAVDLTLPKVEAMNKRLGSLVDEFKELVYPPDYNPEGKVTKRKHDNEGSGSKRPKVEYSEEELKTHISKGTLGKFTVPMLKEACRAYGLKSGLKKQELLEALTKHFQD
UniProt Q8WV99: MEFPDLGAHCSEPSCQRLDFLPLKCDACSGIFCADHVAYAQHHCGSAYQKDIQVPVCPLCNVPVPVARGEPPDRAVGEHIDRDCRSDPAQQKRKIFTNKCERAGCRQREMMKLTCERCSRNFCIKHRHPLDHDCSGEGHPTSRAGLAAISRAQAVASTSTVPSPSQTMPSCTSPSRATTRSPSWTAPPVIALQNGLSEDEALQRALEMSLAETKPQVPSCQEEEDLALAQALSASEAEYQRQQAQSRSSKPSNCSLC
UniProt Q8IUH5: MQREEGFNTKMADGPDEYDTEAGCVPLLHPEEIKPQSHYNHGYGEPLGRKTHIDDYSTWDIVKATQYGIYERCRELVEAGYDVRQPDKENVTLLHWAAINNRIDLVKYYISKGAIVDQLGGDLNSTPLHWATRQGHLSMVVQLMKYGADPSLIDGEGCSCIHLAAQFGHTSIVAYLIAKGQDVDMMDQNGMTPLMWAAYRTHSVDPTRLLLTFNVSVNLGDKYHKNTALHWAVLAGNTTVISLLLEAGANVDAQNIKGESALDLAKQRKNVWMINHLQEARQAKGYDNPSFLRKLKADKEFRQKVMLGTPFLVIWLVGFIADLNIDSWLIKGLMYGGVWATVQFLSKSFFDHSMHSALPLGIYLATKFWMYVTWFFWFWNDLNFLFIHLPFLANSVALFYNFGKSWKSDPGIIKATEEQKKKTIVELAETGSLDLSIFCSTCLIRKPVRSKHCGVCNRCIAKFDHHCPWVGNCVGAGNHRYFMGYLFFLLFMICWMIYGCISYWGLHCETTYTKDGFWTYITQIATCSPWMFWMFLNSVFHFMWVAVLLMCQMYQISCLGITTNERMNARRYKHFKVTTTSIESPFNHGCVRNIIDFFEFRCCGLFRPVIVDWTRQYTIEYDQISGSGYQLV
UniProt Q86WB0: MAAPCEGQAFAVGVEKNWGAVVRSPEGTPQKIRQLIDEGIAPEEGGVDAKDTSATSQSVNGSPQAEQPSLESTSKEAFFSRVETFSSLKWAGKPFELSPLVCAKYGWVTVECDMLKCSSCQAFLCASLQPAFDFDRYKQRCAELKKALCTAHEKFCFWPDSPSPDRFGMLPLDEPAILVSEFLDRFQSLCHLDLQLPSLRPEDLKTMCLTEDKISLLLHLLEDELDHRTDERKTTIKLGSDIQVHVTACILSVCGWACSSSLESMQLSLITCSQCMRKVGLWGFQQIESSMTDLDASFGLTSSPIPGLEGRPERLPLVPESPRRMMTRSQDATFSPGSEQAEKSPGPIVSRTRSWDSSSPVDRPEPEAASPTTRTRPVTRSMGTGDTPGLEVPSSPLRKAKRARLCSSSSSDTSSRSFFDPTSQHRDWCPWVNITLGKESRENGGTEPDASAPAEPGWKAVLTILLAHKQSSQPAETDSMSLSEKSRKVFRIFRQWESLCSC
UniProt Q5VVQ6: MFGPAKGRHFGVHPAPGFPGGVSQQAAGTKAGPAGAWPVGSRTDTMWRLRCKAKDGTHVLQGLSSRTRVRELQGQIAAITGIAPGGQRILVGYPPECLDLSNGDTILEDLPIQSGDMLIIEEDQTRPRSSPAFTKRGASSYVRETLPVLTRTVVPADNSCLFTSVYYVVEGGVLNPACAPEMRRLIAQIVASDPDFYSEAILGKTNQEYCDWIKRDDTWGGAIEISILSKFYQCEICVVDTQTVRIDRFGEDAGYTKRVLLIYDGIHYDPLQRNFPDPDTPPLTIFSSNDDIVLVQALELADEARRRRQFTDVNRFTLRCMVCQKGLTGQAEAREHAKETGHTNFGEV
UniProt P63104: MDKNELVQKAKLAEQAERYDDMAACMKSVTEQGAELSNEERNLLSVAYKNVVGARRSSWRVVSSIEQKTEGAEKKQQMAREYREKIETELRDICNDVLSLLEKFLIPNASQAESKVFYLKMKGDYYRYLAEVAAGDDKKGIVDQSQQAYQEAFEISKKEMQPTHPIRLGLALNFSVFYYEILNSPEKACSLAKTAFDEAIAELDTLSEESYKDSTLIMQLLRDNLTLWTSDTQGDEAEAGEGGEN
UniProt Q96QU8: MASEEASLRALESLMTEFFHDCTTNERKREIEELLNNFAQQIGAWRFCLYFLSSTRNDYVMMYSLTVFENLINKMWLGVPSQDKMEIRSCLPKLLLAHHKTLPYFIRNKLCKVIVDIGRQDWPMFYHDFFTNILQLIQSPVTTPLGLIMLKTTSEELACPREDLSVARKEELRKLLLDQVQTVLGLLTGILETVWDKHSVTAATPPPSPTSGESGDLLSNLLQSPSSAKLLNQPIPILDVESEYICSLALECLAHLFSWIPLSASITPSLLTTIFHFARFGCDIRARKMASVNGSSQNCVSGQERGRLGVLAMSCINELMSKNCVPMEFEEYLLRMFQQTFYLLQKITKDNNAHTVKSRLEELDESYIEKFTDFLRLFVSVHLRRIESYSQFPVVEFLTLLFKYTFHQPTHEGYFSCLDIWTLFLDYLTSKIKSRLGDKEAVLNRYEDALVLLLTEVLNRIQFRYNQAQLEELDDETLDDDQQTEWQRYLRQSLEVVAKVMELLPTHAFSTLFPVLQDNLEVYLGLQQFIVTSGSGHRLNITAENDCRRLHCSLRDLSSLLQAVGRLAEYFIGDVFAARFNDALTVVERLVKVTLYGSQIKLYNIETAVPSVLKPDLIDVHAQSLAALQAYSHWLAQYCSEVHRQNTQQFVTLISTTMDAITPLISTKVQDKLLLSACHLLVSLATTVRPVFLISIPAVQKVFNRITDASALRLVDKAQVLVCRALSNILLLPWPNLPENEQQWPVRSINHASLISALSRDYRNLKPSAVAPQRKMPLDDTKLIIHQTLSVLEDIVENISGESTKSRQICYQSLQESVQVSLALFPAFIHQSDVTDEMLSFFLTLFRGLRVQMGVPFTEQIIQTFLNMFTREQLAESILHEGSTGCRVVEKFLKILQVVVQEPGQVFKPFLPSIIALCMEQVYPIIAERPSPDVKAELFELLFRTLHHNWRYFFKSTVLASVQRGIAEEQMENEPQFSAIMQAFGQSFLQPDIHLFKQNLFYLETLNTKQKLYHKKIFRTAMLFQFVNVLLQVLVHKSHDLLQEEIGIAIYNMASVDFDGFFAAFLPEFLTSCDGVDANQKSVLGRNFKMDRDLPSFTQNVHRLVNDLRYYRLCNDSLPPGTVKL
UniProt Q9C0B5: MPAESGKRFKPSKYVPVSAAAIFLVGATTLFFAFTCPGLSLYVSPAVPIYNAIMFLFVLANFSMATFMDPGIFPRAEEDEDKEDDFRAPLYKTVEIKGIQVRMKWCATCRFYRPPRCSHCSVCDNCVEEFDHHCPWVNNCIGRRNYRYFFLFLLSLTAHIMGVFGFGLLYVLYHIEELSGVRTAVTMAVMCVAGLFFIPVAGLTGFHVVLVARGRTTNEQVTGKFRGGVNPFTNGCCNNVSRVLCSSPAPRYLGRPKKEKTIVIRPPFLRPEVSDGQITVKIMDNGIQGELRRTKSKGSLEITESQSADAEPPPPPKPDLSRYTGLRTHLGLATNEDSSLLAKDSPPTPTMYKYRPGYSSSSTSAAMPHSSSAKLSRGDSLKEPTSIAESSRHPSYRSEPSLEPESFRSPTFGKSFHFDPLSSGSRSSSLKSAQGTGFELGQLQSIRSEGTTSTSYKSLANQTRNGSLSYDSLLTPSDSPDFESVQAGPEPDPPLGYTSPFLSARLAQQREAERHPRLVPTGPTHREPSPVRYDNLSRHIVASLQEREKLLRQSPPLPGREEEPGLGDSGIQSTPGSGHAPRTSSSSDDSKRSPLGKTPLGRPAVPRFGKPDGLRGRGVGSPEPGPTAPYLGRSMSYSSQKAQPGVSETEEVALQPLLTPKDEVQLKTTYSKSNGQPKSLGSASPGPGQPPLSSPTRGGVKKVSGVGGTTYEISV
UniProt Q6FIF0: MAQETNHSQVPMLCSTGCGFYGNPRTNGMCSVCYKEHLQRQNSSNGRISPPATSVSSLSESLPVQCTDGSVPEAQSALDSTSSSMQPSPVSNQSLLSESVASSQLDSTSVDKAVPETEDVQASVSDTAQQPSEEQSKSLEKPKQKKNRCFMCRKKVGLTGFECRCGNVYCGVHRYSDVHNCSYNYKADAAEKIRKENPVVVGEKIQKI
UniProt P16989, whole entry, looked up: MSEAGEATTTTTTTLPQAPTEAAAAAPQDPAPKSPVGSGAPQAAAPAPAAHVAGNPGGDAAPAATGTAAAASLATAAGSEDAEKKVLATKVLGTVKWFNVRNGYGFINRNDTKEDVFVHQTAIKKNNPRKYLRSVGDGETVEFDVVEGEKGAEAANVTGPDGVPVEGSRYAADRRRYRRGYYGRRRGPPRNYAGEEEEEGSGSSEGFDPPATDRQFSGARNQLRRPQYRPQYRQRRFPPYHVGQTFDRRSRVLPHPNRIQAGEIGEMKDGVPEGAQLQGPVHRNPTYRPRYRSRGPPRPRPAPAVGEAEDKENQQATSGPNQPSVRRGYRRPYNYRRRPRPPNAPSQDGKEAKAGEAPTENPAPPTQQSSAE

The targets below were run with CCN(CC)Cc1ccc2cc(COC(=O)Nc3ccc(C(=O)NO)cc3)ccc2c1 [givinostat] (assay: log2 fold change, soluble protein after heating vs DMSO (PISA); higher = thermal stabilisation; K562 cells, 10 uM, 30 min; active = over 0.2 and 3.5 SD of the protein, either way, in both replicates (recomputed)).
In short: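 K562 cells at 2×10^6 cells/mL were treated for 30 min with 10 μM compound, and aliquots were heated for 3 min over 48°C-58°C before pooling. Extraction used PBS with 0.5% NP-40 at 4°C, and soluble protein was the supernatant after 21,000xg for 90 min, measured by TMTpro 16plex LC-MS/MS with channel sums equalised. Thermal stability values, relative to control samples and from duplicates, are log2 fold changes.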

log2 fold change, inactive:
YJU2 (UniProt Q9BW85) -0.039, ZFAND5 (UniProt O76080) -0.016, ZNF24 (UniProt P17028) -0.027, ZFPL1 (UniProt O95159) -0.09, ZMYM3 (UniProt Q14202) 0.002, XRCC5 (UniProt P13010) 0.234, ZMAT2 (UniProt Q96NC0) -0.008, YARS (UniProt P54577) 0.057, YIPF4 (UniProt Q9BSR8) -0.048, ZFP91 (UniProt Q96JP5) 0.009, XRCC6 (UniProt P12956) 0.116, YY1 (UniProt P25490) 0.02, ZFYVE9 (UniProt O95405) 0.06, XPNPEP3 (UniProt Q9NQH7) -0.218, ZFAND2B (UniProt Q8WV99) -0.012, ZDHHC17 (UniProt Q8IUH5) 0.113, YWHAB (UniProt P31946) -0.026, XPO1 (UniProt O14980) 0.024, ZNF143 (UniProt P52747) -0.022, YBX1 (UniProt P67809) -0.056, ZER1 (UniProt Q7Z7L7) 0.117, ZDHHC14 (UniProt Q8IZN3) 0.016, YWHAQ (UniProt P27348) -0.039, YAE1 (UniProt Q9NRH1) -0.017, ZC3HC1 (UniProt Q86WB0) 0.031, ZC3H18 (UniProt Q86VM9) 0.106, YOD1 (UniProt Q5VVQ6) 0.024, YIPF5 isoform 3 (UniProt Q969M3) -0.053, YIPF6 (UniProt Q96EC8) -0.028, XPO5 (UniProt Q9HAV4) -0.029, YWHAZ (UniProt P63104) -0.001, XPO6 (UniProt Q96QU8) 0.068, YLPM1 (UniProt P49750) 0.061, ZDHHC5 (UniProt Q9C0B5) -0.001, XPNPEP1 isoform 3 (UniProt Q9NQW7) 0.042, ZNF217 (UniProt O75362) 0.037, ZFAND6 (UniProt Q6FIF0) 0.017, ZC3H8 (UniProt Q8N5P1) -0.106, YBX3 isoform 2 (UniProt P16989) -0.009
